Data as given in PubChem BioAssay AID493246 (Drosophila RNAi Screening Center, 2011).
In all, the deposit lists about 21,000 reagents; below is an unselected part of those with a known target gene and a result. Over the whole deposit, 429 (2%) were called active. 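Values are raw and not normalised between plates; calls rest on per-plate z-scores that were not deposited.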 A number with no mark means an inactive call. Reagents against one gene are numbered here. Not given: the amount of reagent, the time to read-out.

Screen: 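Identify essential fly genes by loss of cell viability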 (primary screen)
Cells: Drosophila Kc and S2R+ cells
Reagent: long dsRNA against Drosophila genes
Detection: 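Raw, unnormalised count of remaining cells in each well; per-plate z-scores of cell number underlie the calls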
Reading the numbers: Kc cell number and S2R+ cell number: higher = more cells remaining
Call rule: 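Active when the per-plate z-score of cell number is 3 or more in the direction of fewer cells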

gene,reagent no.,"Kc cell number, rep 1","Kc cell number, rep 2","S2R+ cell number, rep 1","S2R+ cell number, rep 2"
Rcd7 (Reduction in Cnn dots 7),1,1.33e6,1.43e6,1.18e6,1.26e6
NitFhit (Nitrilase and fragile histidine triad fusion protein),1,1.30e6,1.34e6,9.86e5,1.25e6
CG6006,1,1.42e6,1.52e6,1.06e6,1.14e6
CG6006,2,1.53e6,1.60e6,1.25e6,1.29e6
Pura (Puratrophin-1-like),1,1.52e6,1.58e6,1.14e6,1.30e6
Pura (Puratrophin-1-like),2,1.46e6,1.31e6,1.11e6,1.16e6
Pura (Puratrophin-1-like),3,1.51e6,1.38e6,1.13e6,1.21e6
Pura (Puratrophin-1-like),4,1.27e6,1.43e6,1.09e6,1.08e6
Pura (Puratrophin-1-like),5,1.39e6,1.34e6,1.15e6,1.22e6
Or33b (Odorant receptor 33b),1,1.57e6,1.71e6,1.25e6,1.41e6
nord,1,1.50e6,1.59e6,1.24e6,1.34e6
nord,2,1.55e6,1.64e6,1.18e6,1.31e6
Non1 (Novel nucleolar protein 1),1,1.21e6,1.24e6,8.36e5,9.27e5
nmdyn-D7,1,1.47e6,1.42e6,1.29e6,1.35e6

Entries above whose target name begins with C or c:
gene,reagent no.,"Kc cell number, rep 1","Kc cell number, rep 2","S2R+ cell number, rep 1","S2R+ cell number, rep 2"
CG6006,1,1.42e6,1.52e6,1.06e6,1.14e6
CG6006,2,1.53e6,1.60e6,1.25e6,1.29e6

Additional results:
gene,reagent no.,"Kc cell number, rep 1","Kc cell number, rep 2","S2R+ cell number, rep 1","S2R+ cell number, rep 2"
CG17032,1,1.34e6,1.52e6,1.20e6,1.30e6
nmo (nemo),1,1.49e6,1.54e6,1.13e6,1.35e6
nmo (nemo),2,1.36e6,1.43e6,1.35e6,1.34e6
CG14491,1,1.55e6,1.62e6,1.27e6,1.35e6
CG14400,1,1.50e6,1.59e6,1.27e6,3.79e5
Wwox (WW domain containing oxidoreductase),1,1.40e6,1.43e6,7.06e5,9.38e5
CG3213,1,1.66e6,1.48e6,1.08e6,1.25e6
CG15422,1,1.65e6,1.60e6,1.21e6,1.38e6
TM9SF4 (Transmembrane 9 superfamily protein member 4),1,1.28e6,1.27e6,1.34e6,1.19e6
TM9SF4 (Transmembrane 9 superfamily protein member 4),2,1.54e6,1.64e6,1.20e6,1.30e6
puml (pummelig),1,1.50e6,1.68e6,1.21e6,1.38e6
lectin-24Db,1,1.30e6,1.44e6,1.24e6,1.24e6
grh (grainy head),1,7.04e5,,8.63e5,
grh (grainy head),2,5.24e5,,7.26e5,
grh (grainy head),3,1.29e6,1.40e6,1.05e6,1.21e6
grh (grainy head),4,1.48e6,1.51e6,1.16e6,1.29e6
CG7557,1,1.41e6,1.49e6,1.21e6,1.16e6
CG12025,1,1.42e6,1.40e6,1.09e6,1.34e6
CG7907,1,1.41e6,1.51e6,1.01e6,1.08e6
Gpdh3 (Glycerol-3-phosphate dehydrogenase 3),1,1.38e6,1.42e6,1.05e6,1.10e6
Gpdh3 (Glycerol-3-phosphate dehydrogenase 3),2,1.22e6,1.25e6,1.10e6,1.20e6
dgrn (degringolade),1,1.87e6,1.87e6,1.29e6,1.37e6
Shmt (Serine hydroxymethyl transferase),1,1.53e6,1.52e6,1.05e6,1.17e6
CG3088,1,1.37e6,1.56e6,1.25e6,1.17e6
Egm (Enigma),1,1.37e6,1.52e6,1.19e6,1.19e6
Ist1,1,1.58e6,1.61e6,1.30e6,1.13e6
